# From the supplement of paper PMC12819154, “High-throughput peptide-centric local stability assay extends protein–ligand identification to membrane proteins, tissues and bacteria” (Nature Structural & Molecular Biology, 2025)
# By UniProt entry, the sequences of proteins in these tests, tags left out. Where a name states a change or a piece, a line headed by the entry shows the natural chain unless it says otherwise.
# UniProt H3BV60: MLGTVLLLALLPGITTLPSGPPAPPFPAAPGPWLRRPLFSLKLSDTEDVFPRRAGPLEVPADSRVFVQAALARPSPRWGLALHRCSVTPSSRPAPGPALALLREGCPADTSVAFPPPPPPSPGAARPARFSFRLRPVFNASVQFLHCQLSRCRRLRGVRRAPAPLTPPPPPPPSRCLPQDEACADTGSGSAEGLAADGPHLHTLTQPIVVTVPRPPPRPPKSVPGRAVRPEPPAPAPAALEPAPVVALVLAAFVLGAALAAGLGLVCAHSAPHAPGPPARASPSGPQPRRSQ
# UniProt O00425, whole entry: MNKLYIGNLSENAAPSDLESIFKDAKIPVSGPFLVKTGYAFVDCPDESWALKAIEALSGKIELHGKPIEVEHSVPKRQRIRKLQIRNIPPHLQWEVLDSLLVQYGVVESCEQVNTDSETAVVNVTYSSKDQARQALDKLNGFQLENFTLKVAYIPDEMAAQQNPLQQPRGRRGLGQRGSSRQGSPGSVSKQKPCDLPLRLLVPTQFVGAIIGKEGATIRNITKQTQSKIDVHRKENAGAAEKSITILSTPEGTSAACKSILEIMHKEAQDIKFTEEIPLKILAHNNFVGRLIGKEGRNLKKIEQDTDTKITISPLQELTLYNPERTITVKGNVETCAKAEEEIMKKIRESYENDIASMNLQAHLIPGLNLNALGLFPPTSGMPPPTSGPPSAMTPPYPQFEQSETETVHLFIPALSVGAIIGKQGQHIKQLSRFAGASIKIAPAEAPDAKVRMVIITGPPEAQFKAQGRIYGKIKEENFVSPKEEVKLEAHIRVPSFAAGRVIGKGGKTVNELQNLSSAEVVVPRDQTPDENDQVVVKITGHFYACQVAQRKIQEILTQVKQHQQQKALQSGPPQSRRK
# UniProt O00443: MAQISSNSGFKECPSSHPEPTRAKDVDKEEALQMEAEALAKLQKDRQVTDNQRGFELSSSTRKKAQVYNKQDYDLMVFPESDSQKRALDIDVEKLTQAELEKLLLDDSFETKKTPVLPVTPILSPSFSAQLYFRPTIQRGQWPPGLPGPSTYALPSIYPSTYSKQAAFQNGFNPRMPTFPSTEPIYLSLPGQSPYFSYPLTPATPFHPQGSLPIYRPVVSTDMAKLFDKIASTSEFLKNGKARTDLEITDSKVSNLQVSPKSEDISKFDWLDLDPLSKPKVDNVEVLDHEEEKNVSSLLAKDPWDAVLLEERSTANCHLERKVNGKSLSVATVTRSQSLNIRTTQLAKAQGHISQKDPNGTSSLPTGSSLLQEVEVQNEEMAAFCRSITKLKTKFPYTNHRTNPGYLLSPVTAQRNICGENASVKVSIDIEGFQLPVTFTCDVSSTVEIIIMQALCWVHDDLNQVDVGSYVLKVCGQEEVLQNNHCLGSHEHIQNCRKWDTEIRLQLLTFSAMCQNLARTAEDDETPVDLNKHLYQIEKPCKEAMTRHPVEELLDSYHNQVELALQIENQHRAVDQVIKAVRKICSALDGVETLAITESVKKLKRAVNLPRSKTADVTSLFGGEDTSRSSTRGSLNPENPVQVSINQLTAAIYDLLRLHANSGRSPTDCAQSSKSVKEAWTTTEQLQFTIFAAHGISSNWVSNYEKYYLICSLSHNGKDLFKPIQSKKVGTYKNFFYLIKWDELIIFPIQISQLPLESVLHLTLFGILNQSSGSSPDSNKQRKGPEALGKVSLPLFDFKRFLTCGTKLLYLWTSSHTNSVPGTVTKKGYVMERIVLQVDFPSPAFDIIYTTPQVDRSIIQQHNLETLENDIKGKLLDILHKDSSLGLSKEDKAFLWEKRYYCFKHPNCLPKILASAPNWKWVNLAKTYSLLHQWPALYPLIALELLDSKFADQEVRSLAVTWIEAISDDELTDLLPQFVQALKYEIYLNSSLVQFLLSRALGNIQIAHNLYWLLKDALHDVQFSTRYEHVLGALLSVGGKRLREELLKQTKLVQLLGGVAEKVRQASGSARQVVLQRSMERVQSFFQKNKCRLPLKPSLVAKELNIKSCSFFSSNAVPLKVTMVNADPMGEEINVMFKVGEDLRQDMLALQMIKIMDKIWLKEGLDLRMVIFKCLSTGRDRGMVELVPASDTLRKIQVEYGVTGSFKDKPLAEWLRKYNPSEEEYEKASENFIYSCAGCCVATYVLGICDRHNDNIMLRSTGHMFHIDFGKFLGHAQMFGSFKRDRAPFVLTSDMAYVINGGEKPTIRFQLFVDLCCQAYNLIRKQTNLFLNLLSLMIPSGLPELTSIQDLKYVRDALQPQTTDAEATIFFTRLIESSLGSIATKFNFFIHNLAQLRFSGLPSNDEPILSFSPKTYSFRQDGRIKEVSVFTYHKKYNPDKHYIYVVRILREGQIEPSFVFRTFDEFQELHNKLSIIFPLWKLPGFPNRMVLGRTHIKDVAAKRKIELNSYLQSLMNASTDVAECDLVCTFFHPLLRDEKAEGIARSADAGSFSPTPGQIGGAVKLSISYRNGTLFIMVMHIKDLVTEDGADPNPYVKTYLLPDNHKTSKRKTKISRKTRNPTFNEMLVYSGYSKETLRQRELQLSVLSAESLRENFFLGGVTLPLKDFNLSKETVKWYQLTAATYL
# UniProt O00189: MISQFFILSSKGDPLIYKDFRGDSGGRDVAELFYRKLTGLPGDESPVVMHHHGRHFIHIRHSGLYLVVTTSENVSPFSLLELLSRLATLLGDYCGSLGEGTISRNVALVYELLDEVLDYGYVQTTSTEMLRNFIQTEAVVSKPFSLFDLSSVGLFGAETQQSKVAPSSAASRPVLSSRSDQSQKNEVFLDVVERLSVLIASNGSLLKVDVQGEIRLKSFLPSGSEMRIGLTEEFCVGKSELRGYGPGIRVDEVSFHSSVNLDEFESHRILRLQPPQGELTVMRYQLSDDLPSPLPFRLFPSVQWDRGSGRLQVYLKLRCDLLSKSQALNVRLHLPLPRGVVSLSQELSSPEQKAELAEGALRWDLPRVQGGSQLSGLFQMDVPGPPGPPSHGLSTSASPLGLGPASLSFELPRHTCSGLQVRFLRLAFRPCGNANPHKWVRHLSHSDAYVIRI
# UniProt O15417: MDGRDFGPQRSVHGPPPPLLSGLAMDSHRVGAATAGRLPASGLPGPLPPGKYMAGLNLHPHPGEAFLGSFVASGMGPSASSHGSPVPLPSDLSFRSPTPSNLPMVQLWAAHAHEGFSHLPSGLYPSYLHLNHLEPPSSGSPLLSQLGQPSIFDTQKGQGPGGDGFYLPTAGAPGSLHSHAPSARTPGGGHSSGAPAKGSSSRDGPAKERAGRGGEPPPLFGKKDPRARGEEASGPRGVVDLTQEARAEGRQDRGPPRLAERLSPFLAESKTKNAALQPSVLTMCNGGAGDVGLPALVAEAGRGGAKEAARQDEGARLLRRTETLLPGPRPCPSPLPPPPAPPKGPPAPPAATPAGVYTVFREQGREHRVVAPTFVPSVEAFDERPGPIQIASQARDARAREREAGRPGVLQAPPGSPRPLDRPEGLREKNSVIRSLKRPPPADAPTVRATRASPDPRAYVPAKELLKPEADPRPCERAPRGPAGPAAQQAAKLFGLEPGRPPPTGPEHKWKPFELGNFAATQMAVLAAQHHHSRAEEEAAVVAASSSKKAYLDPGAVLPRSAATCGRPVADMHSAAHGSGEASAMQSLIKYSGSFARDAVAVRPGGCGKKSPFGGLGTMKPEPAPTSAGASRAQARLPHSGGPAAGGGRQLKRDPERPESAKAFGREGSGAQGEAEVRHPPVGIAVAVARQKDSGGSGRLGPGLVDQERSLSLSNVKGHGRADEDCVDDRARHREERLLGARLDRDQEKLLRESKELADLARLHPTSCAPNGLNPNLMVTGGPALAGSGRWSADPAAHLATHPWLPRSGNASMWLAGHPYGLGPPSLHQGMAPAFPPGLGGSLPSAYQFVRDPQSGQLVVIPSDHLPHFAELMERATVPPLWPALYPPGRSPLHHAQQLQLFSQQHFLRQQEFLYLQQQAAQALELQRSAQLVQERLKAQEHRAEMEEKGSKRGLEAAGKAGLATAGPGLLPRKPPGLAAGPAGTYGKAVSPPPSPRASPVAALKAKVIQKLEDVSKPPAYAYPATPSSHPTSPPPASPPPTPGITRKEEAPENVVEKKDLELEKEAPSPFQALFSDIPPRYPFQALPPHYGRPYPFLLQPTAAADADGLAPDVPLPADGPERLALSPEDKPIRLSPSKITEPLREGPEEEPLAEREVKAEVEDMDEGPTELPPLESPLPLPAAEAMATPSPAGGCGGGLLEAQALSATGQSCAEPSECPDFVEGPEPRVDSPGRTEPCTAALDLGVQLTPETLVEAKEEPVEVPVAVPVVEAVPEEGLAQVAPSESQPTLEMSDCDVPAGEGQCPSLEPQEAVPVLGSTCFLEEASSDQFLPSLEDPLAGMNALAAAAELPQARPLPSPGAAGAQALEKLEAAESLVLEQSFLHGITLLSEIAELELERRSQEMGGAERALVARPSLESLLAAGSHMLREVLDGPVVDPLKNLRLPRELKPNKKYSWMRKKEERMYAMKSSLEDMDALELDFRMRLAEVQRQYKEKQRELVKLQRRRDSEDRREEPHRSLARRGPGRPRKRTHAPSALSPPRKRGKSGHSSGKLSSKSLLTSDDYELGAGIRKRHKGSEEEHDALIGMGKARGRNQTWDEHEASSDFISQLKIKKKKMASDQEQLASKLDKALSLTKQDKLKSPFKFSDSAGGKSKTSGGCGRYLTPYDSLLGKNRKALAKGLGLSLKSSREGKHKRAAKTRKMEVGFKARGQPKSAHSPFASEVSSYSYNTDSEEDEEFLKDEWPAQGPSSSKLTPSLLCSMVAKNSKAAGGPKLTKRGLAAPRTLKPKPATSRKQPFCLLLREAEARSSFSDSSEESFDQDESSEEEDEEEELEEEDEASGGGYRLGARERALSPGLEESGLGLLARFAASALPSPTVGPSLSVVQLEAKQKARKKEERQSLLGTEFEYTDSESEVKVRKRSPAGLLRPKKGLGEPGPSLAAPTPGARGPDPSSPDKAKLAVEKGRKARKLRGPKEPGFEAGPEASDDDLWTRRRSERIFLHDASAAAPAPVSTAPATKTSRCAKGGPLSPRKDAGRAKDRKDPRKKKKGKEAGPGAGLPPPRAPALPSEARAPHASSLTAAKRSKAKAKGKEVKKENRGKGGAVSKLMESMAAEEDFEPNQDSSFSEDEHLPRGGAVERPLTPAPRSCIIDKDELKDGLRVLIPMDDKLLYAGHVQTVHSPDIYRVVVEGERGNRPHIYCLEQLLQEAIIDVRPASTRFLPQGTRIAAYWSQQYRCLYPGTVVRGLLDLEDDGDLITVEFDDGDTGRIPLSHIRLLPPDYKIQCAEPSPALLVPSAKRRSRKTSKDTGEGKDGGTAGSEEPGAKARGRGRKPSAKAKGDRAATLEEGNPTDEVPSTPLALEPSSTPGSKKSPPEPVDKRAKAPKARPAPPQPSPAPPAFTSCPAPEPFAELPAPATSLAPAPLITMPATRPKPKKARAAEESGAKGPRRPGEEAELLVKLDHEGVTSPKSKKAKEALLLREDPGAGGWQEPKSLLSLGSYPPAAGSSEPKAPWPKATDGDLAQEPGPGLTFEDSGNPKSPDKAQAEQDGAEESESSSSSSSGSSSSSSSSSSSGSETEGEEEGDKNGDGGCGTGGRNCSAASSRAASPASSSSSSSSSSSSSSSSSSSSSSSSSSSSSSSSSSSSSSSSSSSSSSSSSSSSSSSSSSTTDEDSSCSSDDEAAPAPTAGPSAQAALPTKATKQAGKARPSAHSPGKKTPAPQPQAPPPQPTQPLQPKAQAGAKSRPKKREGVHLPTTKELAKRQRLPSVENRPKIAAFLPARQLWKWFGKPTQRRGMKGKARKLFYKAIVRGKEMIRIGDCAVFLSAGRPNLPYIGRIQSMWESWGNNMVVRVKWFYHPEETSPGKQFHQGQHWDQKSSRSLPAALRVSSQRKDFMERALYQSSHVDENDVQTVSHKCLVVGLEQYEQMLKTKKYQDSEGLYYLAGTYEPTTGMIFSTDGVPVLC
# UniProt C9JN71: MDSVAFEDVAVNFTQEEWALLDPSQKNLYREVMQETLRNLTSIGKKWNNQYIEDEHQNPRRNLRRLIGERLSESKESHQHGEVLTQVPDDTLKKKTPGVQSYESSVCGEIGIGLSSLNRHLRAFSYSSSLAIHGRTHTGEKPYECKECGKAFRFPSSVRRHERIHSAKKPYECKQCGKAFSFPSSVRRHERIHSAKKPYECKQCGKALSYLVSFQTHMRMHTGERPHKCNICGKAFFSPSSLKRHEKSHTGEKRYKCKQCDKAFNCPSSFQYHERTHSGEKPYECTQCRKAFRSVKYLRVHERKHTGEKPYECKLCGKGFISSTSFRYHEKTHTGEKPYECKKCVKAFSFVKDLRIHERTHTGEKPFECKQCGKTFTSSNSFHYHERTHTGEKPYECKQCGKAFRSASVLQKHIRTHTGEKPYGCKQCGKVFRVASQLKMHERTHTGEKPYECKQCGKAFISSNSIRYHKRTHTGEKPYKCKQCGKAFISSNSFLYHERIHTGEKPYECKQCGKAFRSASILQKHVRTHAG
# Some of the results follow. Most entries show no effect beyond the scatter of the controls.
# Compound: Cc1nc(Nc2ncc(C(=O)Nc3c(C)cccc3Cl)s2)cc(N2CCN(CCO)CC2)n1 [dasatinib]
# Assay: log2 fold change of tryptic peptide abundance, ligand vs vehicle (limited proteolysis) (log2 ratio); higher = more trypsin-susceptible (destabilized)
# Details: ligand concentration: 5 uM; sample: K562 cleared lysate
row,Target,log2 fold change
1,"UniProt H3BV60 (peptide sequence: RPLFSLK, peptide start residue: 60)",0.196
2,"TRIM24 (peptide sequence: VAIFTLMVEINKK, peptide start residue: 311) (UniProt O15164)",0.215
3,"PFAS (peptide sequence: IVLVDDRECPVR, peptide start residue: 598) (UniProt O15067)",0.615
4,"PSMD11 (peptide sequence: DDPIISTHLAK, peptide start residue: 315) (UniProt O00231)",0.188
5,"BHLHE40 (peptide sequence: INECIAQLK, peptide start residue: 68) (UniProt O14503)",-0.439
6,"IPO5 (peptide sequence: EHIMQMLQNPDWK, peptide start residue: 361) (UniProt O00410)",-0.301
7,"NDUFAB1 (peptide sequence: LMCPQEIVDYIADKK, peptide start residue: 138) (UniProt O14561)",0.675
8,"UniProt O00472 (peptide sequence: STPMNPANTIR, peptide start residue: 183)",0.0196
9,"C2CD2L (peptide sequence: NLGTPTSSTPRPSITPTKK, peptide start residue: 414) (UniProt O14523)",-0.332
10,"SPTLC1 (peptide sequence: LLKEQEIEDQKNPR, peptide start residue: 220) (UniProt O15269)",-0.418
11,"IGF2BP3 (peptide sequence: IAPAEAPDAK, peptide start residue: 441) (UniProt O00425)",0.147
12,"PIK3C2A (peptide sequence: LIESSLGSIATK, peptide start residue: 1374) (UniProt O00443)",-0.469
13,"ARHGEF11 (peptide sequence: VLDLIFYQR, peptide start residue: 755) (UniProt O15085)",-0.201
14,"UniProt O14771 (peptide sequence: NTTLGFGLK, peptide start residue: 237)",0.607
15,"TNPO2 (peptide sequence: GLLFHPEWVVK, peptide start residue: 401) (UniProt O14787)",-0.596
16,"UniProt O00193 (peptide sequence: ESHPHGVK, peptide start residue: 6)",-0.13
17,"UniProt B7ZW38 (peptide sequence: VFIGNLNTLVVKK, peptide start residue: 18)",0.0614
18,"BACH1 (peptide sequence: SECPWLGIR, peptide start residue: 433) (UniProt O14867)",0.138
19,"AP4M1 (peptide sequence: SFLPSGSEMR, peptide start residue: 218) (UniProt O00189)",-0.296
20,"PMM2 (peptide sequence: RICELLFS, peptide start residue: 239) (UniProt O15305)",-0.353
21,"TNRC18 (peptide sequence: GPAGPAAQQAAK, peptide start residue: 481) (UniProt O15417)",-0.758
22,"SETD1A (peptide sequence: RSENSYQDAFSR, peptide start residue: 300) (UniProt O15047)",-0.206
23,"UniProt O00481 (peptide sequence: HYWEVEVGDR, peptide start residue: 342)",-0.042
24,"TNFRSF10B (peptide sequence: QKIEDHLLSSGK, peptide start residue: 416) (UniProt O14763)",0.316
25,"PRMT5 (peptide sequence: QGFDFLCMPVFHPR, peptide start residue: 36) (UniProt O14744)",0.301
26,"PPP6C (peptide sequence: AKWPDRITLLR, peptide start residue: 101) (UniProt O00743)",-0.131
27,"UniProt C9JN71 (peptide sequence: AFFSPSSLKR, peptide start residue: 235)",-0.286
28,"IFIT3 (peptide sequence: LSDAQIYVDKVK, peptide start residue: 110) (UniProt O14879)",0.569
29,"CDC42EP2 (peptide sequence: ELPDGPSPLLK, peptide start residue: 95) (UniProt O14613)",-0.368

# Reformatted with bars between the fields: part of the list above.
row | Target | log2 fold change
15 | TNPO2 (peptide sequence: GLLFHPEWVVK, peptide start residue: 401) (UniProt O14787) | -0.596
16 | UniProt O00193 (peptide sequence: ESHPHGVK, peptide start residue: 6) | -0.13
